# Among all 140,000 compounds or so, about 4,300 (3.1%) were called active. The shares of active, inactive and inconclusive entries below differ from those in the screen.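 The calls were made as follows: active = readout at or below -70, meaning at least 70% loss of cells showing the perinucleolar compartment, a nuclear body marking cancer cells; inconclusive = readout between -30 and a set limit; inactive = the rest.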
# Test: High Content Assay for Compounds that inhibit the Assembly of the Perinucleolar Compartment;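 also: plate controls were DMSO wells for no effect and camptothecin positive control wells for full effect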
# Settings: PC3M PTB-GFP, PNC prevalence imaging, 16 h; at 10 µM; hits give low values
# Summary of the method: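 PC3M cells stably expressing PTB-GFP, 750–1000 cells/well, treated 16 h at 37 °C with compound (23 nl of library stock), in duplicate. After paraformaldehyde fixation and Hoechst stain, imaged at 20x; PNC prevalence scored by image analysis.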
row,Compound,"activity change (PNC), negative = inhibition"
1,Cc1ncoc1C(=O)Nc1ccc(Oc2ccccc2)cc1,inactive: 34.6%
2,C/C(=N\NC(=O)C(=O)Nc1ccc(C)cc1)c1ccncc1,inconclusive: -39.5%
3,CC(=O)CCN1CCOCC1,inconclusive: -52.6%
4,CC(=O)c1ccc(N2C(=O)[C@@H]3C(C(=O)CCN4C(=O)c5ccccc5C4=O)=NN[C@@H]3C2=O)cc1,active: -108%
5,CC(C)C(=O)NC(=S)Nc1sc2c(c1C(N)=O)CCCC2,active: -109%
6,Nc1nc(SCC(=O)Nc2ccccc2)nc2nc3c(cc12)CCCC3,inconclusive: -35%
7,CC1CCN(C(=O)c2ccc(-n3cnnn3)cc2)CC1,inactive: 0.753%
8,Cc1cc(=O)[nH]c(SCC2COC3(CCCCC3)O2)n1 (stereo not given),inconclusive: -52.8%
9,Cc1ccccc1NC(=O)/C(=C\c1cccs1)NC(=O)c1ccco1,inconclusive: -66.3%
10,CC(C)(C)OC(=O)[C@H]1[C@H](c2ccc([N+](=O)[O-])cc2)C2(C(=O)c3ccccc3C2=O)C2c3ccccc3C=NN21 (stereo not given in full),inconclusive: -30.4%
11,O=C(NCc1ccco1)C1CC(=O)N(c2ccc(F)cc2)C1 (stereo not given),inconclusive: -37.9%
12,CCC(CC)C(=O)Nc1ccc(C(=O)c2ccccc2)cc1,inconclusive: -37.7%
13,CCn1cc(/C=N/NC(=O)c2ccc(C#N)cc2F)c2ccccc21,inconclusive: -30.5%
14,CCOc1ccc(NC(=O)c2ccccn2)cc1,inconclusive: -42.4%
15,O=C(NCCCN1CCOCC1)C1(c2ccccc2)CCCC1,inconclusive: -71.8%
16,c1ccc2c(-c3nnc4n3CCCCC4)c[nH]c2c1,inactive: -19%
17,Cc1cc2ccccc2c(=O)n1CC(=O)NCC(=O)N1CCN(c2cccc(Cl)c2)CC1,inconclusive: -60.6%
18,CC(C)(C)c1ccc(OCC(=O)NNC(=S)NC(=O)c2ccccc2[N+](=O)[O-])c(Br)c1,inconclusive: -65.1%
19,Cc1sc(NC(=O)c2ccco2)nc1-c1ccc2c(c1)CC(C)N2C(=O)C1CC1 (stereo not given),inactive: 11.2%
20,COC(=O)c1cccc(NC(=O)NC23CC4CC(CC(C4)C2)C3)c1,inconclusive: -34.1%
21,Cc1nn(-c2ccccc2)c2nc(-c3ccncc3)cc(C(=O)NCc3ccco3)c12,inactive: 4.49%
22,Cc1cccc(NC(=S)N2CCn3cccc3C2c2cccnc2)c1 (stereo not given),inconclusive: -48.5%
23,COC(=O)c1sc(=S)n(-c2ccccc2)c1N,inconclusive: -34.1%

# Structures from the list above that have a thiophene ring, fused or not (2):
row,Compound,"activity change (PNC), negative = inhibition"
5,CC(C)C(=O)NC(=S)Nc1sc2c(c1C(N)=O)CCCC2,active: -109%
9,Cc1ccccc1NC(=O)/C(=C\c1cccs1)NC(=O)c1ccco1,inconclusive: -66.3%

# (continued)

row,Compound,"activity change (PNC), negative = inhibition"
1,COc1ccccc1Cn1c(=O)c2ccccc2n2c(SCC(=O)N3CCCCC3)nnc12,inconclusive: -60.8%
2,COc1ccc(-c2nnc3ccc(SC(C(C)=O)C(C)=O)nn23)cc1OC,inactive: -10.9%
3,COC(=O)c1cc(=O)nc2sc(-c3cccs3)nn12,inconclusive: -73.2%
4,CNC(=O)c1[nH]cnc1C(=O)Nc1ccccc1OC,inconclusive: -61.7%
5,O=C(NNC(=S)NCc1ccccc1)c1ccccc1OC(F)F,inconclusive: -41.5%
6,O=C(NC1CCCCCCC1)c1c(O)c2ccccc2[nH]c1=O,inconclusive: -47%
7,O=C(Cn1cc(C(F)(F)F)ccc1=O)NC(c1ccccc1)c1ccccc1,inconclusive: -56.5%
8,CN=C1S/C(=C\c2ccc(N3CCOCC3)cc2C)C(=O)N1C,inactive: -29.4%
9,COC(=O)N/N=C/c1cc(Cl)c(OCc2ccc(F)cc2)c(OC)c1,active: -86.6%
10,CC(=O)N(O)CCCCCNC(=O)CCC(=O)N(O)CCCCCNC(=O)CCC(=O)N(O)CCCCCN,inactive: 38.4%
11,Clc1ccc2ncc(-c3nnnn3-c3ccccc3)c(-c3ccccc3)c2c1,inconclusive: -59.5%
12,CN(C)C(CNC(=O)c1ccc(S(=O)(=O)NCc2ccco2)cc1)c1ccccc1 (stereo not given),inconclusive: -63.4%
13,O=C(Nc1ccccc1)c1nnsc1S(=O)c1ccc(Cl)cc1 (stereo not given),inactive: -18.2%
14,O=[N+]([O-])c1cc(S(=O)(=O)N2CCCCC2)ccc1NCc1cccc(Cl)c1,inconclusive: -50%
15,COc1ccc(-c2nc(CS(=O)(=O)CC(=O)Nc3ccc(Cl)cc3)c(C)o2)cc1,inconclusive: -51.2%
16,CC1CCCN(C(=S)Nc2ccc3nc4n(c(=O)c3c2)CCCCC4)C1 (stereo not given),active: -119%
17,O=C(Cn1c(C(F)(F)F)nc2ccccc21)c1ccc(Cl)cc1,inconclusive: -45.2%
18,CCOC(=O)c1sc(NC(=S)NC(=O)CC(C)C)cc1C,inconclusive: -31.2%
19,O=c1cc(O)n(-c2ccc(Cl)cc2)c(=S)[nH]1,inconclusive: -46.5%
20,Cc1nn(-c2ccccc2)c(N2CCCC2)c1/C=N/NC(=O)c1cc2ccccc2cc1O,inactive: -1.25%
21,Cc1ccc(-c2nc(-c3ccccc3)no2)c(Cl)c1,inactive: 18.9%
22,CC(=O)OCC(=O)NCC(=O)c1c[nH]c2ccccc12,active: -100%

# From PubChem BioAssay AID2417 (National Center for Advancing Translational Sciences (NCATS), 2010)
